Experimental data taken from the supplement of paper PMC6411743.
± gives the standard deviation of the averaged measurements. This is a selection; strong and weak results do not stand in their true shares.

Amino acid sequences for entries named in this document (tags omitted). A change or cut given only in a name is not applied to a line headed by its entry.
UniProt Q86X55: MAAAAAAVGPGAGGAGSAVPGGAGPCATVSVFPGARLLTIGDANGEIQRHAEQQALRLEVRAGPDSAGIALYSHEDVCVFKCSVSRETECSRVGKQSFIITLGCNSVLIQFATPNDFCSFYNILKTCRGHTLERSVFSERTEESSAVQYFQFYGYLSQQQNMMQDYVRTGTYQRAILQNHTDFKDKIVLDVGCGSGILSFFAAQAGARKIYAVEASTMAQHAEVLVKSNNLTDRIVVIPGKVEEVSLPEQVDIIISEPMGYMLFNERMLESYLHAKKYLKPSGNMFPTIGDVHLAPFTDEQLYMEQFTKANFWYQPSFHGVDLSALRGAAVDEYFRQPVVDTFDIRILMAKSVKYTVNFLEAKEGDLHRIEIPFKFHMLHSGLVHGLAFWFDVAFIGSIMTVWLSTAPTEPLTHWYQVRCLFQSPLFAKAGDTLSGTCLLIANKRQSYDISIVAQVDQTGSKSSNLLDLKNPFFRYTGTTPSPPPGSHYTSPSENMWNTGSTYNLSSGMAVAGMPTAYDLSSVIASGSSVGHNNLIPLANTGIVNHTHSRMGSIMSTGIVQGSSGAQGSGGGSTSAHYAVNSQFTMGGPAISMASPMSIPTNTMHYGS
UniProt Q6UB99: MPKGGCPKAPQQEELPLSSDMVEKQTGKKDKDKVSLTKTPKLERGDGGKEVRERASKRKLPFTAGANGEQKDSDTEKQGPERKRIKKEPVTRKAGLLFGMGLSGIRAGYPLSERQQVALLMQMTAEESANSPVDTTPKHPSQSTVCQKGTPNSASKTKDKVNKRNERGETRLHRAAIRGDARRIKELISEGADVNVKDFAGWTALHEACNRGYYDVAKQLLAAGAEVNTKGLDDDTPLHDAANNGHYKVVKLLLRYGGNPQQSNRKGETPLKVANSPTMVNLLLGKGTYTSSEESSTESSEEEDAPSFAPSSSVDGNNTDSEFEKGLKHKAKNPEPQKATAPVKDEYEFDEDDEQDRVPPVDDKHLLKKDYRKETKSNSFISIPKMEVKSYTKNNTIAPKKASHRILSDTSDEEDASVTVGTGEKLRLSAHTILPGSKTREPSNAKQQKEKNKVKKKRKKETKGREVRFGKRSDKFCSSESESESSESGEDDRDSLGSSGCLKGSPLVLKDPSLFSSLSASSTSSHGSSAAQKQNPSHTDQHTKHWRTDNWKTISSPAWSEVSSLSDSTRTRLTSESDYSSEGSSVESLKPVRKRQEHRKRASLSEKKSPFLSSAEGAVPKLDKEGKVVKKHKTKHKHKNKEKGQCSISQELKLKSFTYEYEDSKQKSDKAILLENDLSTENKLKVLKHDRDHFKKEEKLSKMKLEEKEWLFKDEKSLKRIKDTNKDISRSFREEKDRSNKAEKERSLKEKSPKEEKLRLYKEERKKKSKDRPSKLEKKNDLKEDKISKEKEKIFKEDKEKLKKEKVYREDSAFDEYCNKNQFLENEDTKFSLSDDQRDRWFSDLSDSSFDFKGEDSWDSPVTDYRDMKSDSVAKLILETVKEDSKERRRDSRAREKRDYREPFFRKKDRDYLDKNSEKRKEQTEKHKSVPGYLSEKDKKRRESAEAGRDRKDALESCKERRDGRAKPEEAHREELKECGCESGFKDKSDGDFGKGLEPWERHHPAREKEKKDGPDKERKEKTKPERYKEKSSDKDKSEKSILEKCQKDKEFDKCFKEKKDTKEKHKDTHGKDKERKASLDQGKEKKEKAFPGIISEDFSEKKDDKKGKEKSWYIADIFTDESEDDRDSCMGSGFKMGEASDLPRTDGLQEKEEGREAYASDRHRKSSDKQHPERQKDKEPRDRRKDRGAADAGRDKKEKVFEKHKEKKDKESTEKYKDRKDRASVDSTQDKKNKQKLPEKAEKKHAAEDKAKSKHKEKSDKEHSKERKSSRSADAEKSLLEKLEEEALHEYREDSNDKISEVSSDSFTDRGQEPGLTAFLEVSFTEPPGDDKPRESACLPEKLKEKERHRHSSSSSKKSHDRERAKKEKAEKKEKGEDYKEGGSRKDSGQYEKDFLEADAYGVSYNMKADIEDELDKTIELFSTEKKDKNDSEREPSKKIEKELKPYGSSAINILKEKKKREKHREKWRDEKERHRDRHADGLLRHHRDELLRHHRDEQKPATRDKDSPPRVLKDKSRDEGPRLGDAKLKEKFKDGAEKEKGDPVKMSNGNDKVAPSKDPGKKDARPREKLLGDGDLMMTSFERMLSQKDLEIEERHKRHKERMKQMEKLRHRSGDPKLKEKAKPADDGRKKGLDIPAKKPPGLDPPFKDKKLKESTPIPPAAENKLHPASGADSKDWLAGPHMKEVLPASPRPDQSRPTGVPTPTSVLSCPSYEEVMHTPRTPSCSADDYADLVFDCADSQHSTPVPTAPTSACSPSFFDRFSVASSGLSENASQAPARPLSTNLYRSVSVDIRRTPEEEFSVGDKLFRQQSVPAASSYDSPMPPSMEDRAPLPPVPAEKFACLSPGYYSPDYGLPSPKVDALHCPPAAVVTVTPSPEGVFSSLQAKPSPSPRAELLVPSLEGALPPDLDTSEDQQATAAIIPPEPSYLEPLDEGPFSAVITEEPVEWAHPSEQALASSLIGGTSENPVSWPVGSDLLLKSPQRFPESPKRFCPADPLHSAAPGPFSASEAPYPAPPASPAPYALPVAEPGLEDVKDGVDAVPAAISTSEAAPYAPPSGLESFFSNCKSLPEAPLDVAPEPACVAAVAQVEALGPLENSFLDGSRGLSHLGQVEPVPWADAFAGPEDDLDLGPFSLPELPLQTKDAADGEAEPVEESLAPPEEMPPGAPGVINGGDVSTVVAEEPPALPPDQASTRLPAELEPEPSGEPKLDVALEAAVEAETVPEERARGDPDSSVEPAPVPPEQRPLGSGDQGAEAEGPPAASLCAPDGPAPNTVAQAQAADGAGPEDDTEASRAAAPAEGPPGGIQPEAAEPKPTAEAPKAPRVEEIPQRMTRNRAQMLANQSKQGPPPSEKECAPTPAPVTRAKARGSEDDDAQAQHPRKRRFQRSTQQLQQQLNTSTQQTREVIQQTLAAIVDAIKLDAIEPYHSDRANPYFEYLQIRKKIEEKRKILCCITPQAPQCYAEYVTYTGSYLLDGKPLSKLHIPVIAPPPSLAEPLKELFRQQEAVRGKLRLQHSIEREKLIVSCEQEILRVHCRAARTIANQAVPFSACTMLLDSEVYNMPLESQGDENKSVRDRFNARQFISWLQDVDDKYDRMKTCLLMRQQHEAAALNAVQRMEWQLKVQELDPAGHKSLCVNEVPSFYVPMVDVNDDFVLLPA
UniProt Q75QN2, whole entry: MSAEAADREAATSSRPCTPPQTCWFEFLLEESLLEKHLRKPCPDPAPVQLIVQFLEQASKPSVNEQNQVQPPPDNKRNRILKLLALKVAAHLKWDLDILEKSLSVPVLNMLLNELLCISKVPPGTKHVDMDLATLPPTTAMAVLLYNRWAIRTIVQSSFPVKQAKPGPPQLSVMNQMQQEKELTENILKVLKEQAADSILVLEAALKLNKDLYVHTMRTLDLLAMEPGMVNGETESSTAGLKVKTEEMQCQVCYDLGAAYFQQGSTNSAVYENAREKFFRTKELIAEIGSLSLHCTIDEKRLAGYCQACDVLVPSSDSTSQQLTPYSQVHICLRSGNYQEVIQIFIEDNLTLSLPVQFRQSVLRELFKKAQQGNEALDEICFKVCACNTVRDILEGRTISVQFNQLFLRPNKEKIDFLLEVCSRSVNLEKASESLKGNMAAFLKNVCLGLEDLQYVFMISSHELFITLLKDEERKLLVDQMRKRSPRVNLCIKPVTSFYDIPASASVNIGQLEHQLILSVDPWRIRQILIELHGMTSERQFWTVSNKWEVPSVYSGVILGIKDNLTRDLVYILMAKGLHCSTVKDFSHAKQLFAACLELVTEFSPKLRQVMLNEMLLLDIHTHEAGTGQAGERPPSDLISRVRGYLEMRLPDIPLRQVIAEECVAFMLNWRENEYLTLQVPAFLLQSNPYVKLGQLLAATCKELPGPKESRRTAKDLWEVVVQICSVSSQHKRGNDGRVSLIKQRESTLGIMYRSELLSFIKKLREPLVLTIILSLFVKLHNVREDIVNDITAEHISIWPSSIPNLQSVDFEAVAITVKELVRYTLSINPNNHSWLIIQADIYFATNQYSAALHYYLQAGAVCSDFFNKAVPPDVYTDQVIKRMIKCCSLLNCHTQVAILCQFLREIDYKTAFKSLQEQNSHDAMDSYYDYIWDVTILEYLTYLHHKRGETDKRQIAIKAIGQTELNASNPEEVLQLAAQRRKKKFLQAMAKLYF
UniProt Q6ZMG9: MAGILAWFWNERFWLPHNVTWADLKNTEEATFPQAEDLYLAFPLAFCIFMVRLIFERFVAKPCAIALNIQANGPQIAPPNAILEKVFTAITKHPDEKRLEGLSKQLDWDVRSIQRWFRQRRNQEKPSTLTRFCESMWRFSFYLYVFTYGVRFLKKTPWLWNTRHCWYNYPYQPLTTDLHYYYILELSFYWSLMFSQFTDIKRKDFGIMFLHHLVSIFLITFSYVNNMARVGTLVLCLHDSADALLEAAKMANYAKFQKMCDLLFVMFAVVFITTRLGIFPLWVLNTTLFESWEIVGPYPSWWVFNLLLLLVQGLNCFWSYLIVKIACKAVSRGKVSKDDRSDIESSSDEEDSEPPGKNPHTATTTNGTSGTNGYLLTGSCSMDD
UniProt Q71SY5: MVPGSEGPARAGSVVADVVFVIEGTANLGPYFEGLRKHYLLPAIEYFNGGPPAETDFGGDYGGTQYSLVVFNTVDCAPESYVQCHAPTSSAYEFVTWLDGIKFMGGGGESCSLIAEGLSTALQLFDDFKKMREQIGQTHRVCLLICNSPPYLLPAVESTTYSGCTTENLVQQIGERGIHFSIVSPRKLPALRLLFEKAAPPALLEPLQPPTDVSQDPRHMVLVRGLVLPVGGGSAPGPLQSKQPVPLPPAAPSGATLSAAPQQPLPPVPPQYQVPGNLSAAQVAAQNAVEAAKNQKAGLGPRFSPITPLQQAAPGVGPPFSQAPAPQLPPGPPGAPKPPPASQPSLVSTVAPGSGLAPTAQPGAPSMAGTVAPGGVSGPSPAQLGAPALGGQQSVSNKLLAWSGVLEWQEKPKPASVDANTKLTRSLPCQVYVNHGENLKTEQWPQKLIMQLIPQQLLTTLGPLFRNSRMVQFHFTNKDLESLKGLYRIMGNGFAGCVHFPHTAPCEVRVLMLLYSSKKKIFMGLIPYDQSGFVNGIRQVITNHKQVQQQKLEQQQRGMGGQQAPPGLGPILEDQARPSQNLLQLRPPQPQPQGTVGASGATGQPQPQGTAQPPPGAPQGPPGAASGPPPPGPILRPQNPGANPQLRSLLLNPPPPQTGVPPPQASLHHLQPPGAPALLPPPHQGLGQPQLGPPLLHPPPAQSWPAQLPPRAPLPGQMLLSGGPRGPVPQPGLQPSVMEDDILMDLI
UniProt Q6UXV4: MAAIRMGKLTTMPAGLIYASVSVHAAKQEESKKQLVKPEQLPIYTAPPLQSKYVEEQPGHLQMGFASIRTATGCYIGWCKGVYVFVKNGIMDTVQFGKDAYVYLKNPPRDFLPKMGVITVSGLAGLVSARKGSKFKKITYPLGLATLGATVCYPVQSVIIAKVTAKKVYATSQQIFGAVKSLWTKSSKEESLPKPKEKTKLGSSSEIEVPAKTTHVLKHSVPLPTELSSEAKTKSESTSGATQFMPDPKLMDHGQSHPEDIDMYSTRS
UniProt Q7L8L6: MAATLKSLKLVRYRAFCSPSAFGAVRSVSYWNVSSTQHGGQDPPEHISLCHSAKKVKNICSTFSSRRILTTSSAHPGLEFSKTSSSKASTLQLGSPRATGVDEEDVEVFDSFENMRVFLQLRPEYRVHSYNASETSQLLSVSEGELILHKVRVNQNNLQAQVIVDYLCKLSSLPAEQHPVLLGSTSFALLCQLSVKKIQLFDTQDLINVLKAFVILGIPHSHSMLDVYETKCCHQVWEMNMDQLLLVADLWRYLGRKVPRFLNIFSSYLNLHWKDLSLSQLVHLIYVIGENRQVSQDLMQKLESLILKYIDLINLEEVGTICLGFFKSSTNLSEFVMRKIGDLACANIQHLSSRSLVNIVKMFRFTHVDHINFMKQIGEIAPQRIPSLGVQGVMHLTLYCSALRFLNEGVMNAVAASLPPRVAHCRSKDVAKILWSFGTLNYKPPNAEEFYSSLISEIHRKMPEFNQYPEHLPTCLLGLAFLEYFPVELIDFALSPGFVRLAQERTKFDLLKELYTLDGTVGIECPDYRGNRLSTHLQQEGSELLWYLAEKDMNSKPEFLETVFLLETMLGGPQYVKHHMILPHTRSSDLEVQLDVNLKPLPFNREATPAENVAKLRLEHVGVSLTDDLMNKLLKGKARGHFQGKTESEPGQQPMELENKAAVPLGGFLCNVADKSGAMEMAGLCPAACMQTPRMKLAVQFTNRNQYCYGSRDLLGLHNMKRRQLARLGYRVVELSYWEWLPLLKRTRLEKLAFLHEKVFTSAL

Compound: Nc1ncnc2c1ncn2[C@@H]1O[C@H](COP(=O)(O)OP(=O)(O)OP(=O)(O)O)[C@@H](O)[C@H]1O [adenosine triphosphate]
Test: NP40-soluble protein abundance relative to vehicle (solubility fold change) (ratio); higher = more soluble protein in presence of ATP
Summary of the method: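 In three independent experiments, Jurkat crude lysate made by Dounce homogenisation was treated for 10 min at room temperature and then 3 min at 37 °C with eight concentrations ranging from 0.1 to 10 mM. It was then solubilised with 0.8% NP40 plus benzonase for 60 min at 4 °C and ultracentrifuged. The supernatant was TMT-labelled for LC-MS/MS, and each value is the fold change against the detergent-processed vehicle for the same replicate, using vsn-normalised intensities.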

Target	NP40-soluble protein abundance (concentration: 1mM)	NP40-soluble protein abundance (concentration: 2mM)	NP40-soluble protein abundance (concentration: 4mM)	NP40-soluble protein abundance (concentration: 6mM)	NP40-soluble protein abundance (concentration: 8mM)	NP40-soluble protein abundance (concentration: 10mM)
UniProt Q86X55 and related entries	1.02 ± 0.14	1 ± 0.097	0.994 ± 0.11	0.894 ± 0.13	1.02 ± 0.081	0.981 ± 0.051
PARG (UniProt Q86W56)	0.9568 ± 0.0042	0.996 ± 0.025	0.994 ± 0.044	0.998 ± 0.019	0.979 ± 0.042	0.987 ± 0.031
UniProt Q86UK7 and related entries	1.05 ± 0.025	1.06 ± 0.041	1.1 ± 0.041	1.09 ± 0.034	1.11 ± 0.023	1.16 ± 0.045
UniProt Q7Z7A3	0.952 ± 0.18	1.12 ± 0.3	1.03 ± 0.14	0.958 ± 0.2	1.04 ± 0.16	1.02 ± 0.03
ANKRD11 (UniProt Q6UB99)	0.952 ± 0.073	1.01 ± 0.043	1.02 ± 0.024	1.03 ± 0.072	0.994 ± 0.033	1.02 ± 0.034
RAB11FIP1 (UniProt Q6WKZ4)	0.981 ± 0.051	0.984 ± 0.024	0.979 ± 0.033	1.02 ± 0.03	0.954 ± 0.0055	0.9549 ± 0.0051
UniProt Q86TI0 and related entries	1.033 ± 0.0036	1.03 ± 0.026	1.025 ± 0.0096	1.024 ± 0.0068	1.03 ± 0.015	1.02 ± 0.024
UniProt Q86SX3 and related entries	0.986 ± 0.13	1.14 ± 0.065	1.2 ± 0.099	1.28 ± 0.073	1.18 ± 0.054	1.25 ± 0.085
ZDHHC13 (UniProt Q8IUH4)	0.971 ± 0.09	0.965 ± 0.084	0.925 ± 0.075	0.906 ± 0.062	0.979 ± 0.11	0.937 ± 0.046
UniProt Q75QN2 and related entries	1.11 ± 0.17	1.06 ± 0.091	1.09 ± 0.065	1.01 ± 0.082	1.17 ± 0.016	1.14 ± 0.034
UniProt Q7L2E3-2|H7BXY3 and related entries	0.828 ± 0.031	0.896 ± 0.064	0.944 ± 0.12	0.932 ± 0.059	1.03 ± 0.13	1.12 ± 0.13
UniProt Q6W2J9 and related entries	1.08 ± 0.073	1.09 ± 0.15	1.11 ± 0.15	1.1 ± 0.13	1.14 ± 0.051	1.13 ± 0.12
UniProt Q7Z5L9 and related entries	0.949 ± 0.047	0.9441 ± 0.005	0.9395 ± 0.008	0.9354 ± 0.008	0.918 ± 0.019	0.912 ± 0.028
UniProt Q86UE8-2|Q86UE8-3	0.968 ± 0.032	0.969 ± 0.021	0.964 ± 0.014	0.986 ± 0.011	0.9516 ± 0.0083	0.977 ± 0.028
UniProt Q6PJW8 and related entries	0.963 ± 0.053	0.963 ± 0.082	0.915 ± 0.04	1.03 ± 0.064	0.944 ± 0.084	0.938 ± 0.023
TSPYL5 (UniProt Q86VY4)	1 ± 0.042	1.051 ± 0.0027	1.07 ± 0.024	1.1 ± 0.042	1.119 ± 0.0042	1.11 ± 0.065
UniProt Q7Z7L7	0.96049 ± 0.00035	0.985 ± 0.049	1.02 ± 0.045	0.904 ± 0.026	0.965 ± 0.011	1.04 ± 0.07
SESTD1 (UniProt Q86VW0)	0.989 ± 0.025	1.09 ± 0.03	1.05 ± 0.035	1.03 ± 0.036	1.05 ± 0.051	1.02 ± 0.12
UniProt Q7Z2Z2	1 ± 0.03	0.99 ± 0.021	0.965 ± 0.028	0.953 ± 0.053	0.989 ± 0.032	0.972 ± 0.022
DYM (UniProt Q7RTS9)	1.02 ± 0.04	0.952 ± 0.038	1 ± 0.076	0.954 ± 0.037	0.97 ± 0.074	0.971 ± 0.072

Target	NP40-soluble protein abundance (concentration: 1mM)	NP40-soluble protein abundance (concentration: 2mM)	NP40-soluble protein abundance (concentration: 4mM)	NP40-soluble protein abundance (concentration: 6mM)	NP40-soluble protein abundance (concentration: 8mM)	NP40-soluble protein abundance (concentration: 10mM)
UniProt Q6RFH5 and related entries	1.03 ± 0.047	1.03 ± 0.05	1.12 ± 0.083	1.16 ± 0.038	1.1 ± 0.12	1.13 ± 0.092
UniProt Q86XP3 and related entries	1.07 ± 0.019	1.06 ± 0.019	1.1 ± 0.013	1.1 ± 0.028	1.14 ± 0.021	1.14 ± 0.033
UniProt Q86UW6 and related entries	1.12 ± 0.024	1.13 ± 0.018	1.118 ± 0.0056	1.14 ± 0.064	1.11 ± 0.043	1.142 ± 0.0069
TSEN54 (UniProt Q7Z6J9)	0.972 ± 0.03	0.978 ± 0.03	1 ± 0.012	1.02 ± 0.026	1 ± 0.021	0.965 ± 0.021
UniProt Q6ZMI0	0.992 ± 0.029	1 ± 0.025	0.985 ± 0.015	1.01 ± 0.024	0.941 ± 0.025	0.966 ± 0.01
UniProt Q6ZN18 and related entries	1.05 ± 0.1	1.09 ± 0.14	1.1 ± 0.062	1.12 ± 0.033	0.99 ± 0.15	1 ± 0.016
HPS6 (UniProt Q86YV9)	0.958 ± 0.032	0.955 ± 0.074	0.96 ± 0.05	0.946 ± 0.067	0.938 ± 0.057	0.982 ± 0.023
UniProt Q86XN8 and related entries	0.965 ± 0.13	1.02 ± 0.25	0.995 ± 0.091	1.02 ± 0.021	0.9336 ± 0.0022	0.957 ± 0.042
ASRGL1 (UniProt Q7L266)	1.07 ± 0.011	1.051 ± 0.0044	1.04 ± 0.064	1.05 ± 0.026	0.981 ± 0.03	0.977 ± 0.03
UniProt Q6V1X1 and related entries	1.06 ± 0.13	0.985 ± 0.14	1.01 ± 0.12	0.96 ± 0.14	1.02 ± 0.048	0.972 ± 0.079
AACS (UniProt Q86V21)	1.01 ± 0.055	1 ± 0.048	0.968 ± 0.067	0.995 ± 0.096	1.01 ± 0.057	0.951 ± 0.054
CDR2L (UniProt Q86X02)	0.919 ± 0.089	0.945 ± 0.017	0.968 ± 0.091	0.981 ± 0.06	0.946 ± 0.096	0.985 ± 0.1
UniProt Q7Z4H7 and related entries	0.993 ± 0.042	1 ± 0.011	1.01 ± 0.023	1.02 ± 0.015	0.986 ± 0.019	1 ± 0.013
DHRS11 (UniProt Q6UWP2)	0.981 ± 0.02	1.01 ± 0.037	0.976 ± 0.03	0.996 ± 0.022	0.953 ± 0.025	0.963 ± 0.035
UniProt Q86WV1 and related entries	0.967 ± 0.069	0.987 ± 0.074	0.988 ± 0.044	0.975 ± 0.053	0.941 ± 0.053	0.934 ± 0.044
UniProt Q6UWE0 and related entries	0.971 ± 0.036	0.972 ± 0.062	0.958 ± 0.042	0.93 ± 0.063	0.958 ± 0.054	0.971 ± 0.043
UniProt Q6ZMG9 and related entries	0.935 ± 0.24	0.964 ± 0.11	0.948 ± 0.15	0.936 ± 0.25	0.923 ± 0.16	0.997 ± 0.21
UniProt Q86V48 and related entries	0.991 ± 0.06	1.02 ± 0.054	1.08 ± 0.063	1.19 ± 0.083	1.17 ± 0.047	1.23 ± 0.037
UniProt Q6PIF6	1.08 ± 0.15	1.01 ± 0.058	1.05 ± 0.056	0.976 ± 0.037	1.11 ± 0.03	1.14 ± 0.072
ADAT2 (UniProt Q7Z6V5)	0.922 ± 0.092	0.959 ± 0.065	0.936 ± 0.016	0.958 ± 0.07	0.932 ± 0.025	0.893 ± 0.11

An excerpt of these results, with each value named:
UniProt Q86SX3 and related entries
  NP40-soluble protein abundance (concentration: 1mM): 0.986 ± 0.13
  NP40-soluble protein abundance (concentration: 2mM): 1.14 ± 0.065
  NP40-soluble protein abundance (concentration: 4mM): 1.2 ± 0.099
  NP40-soluble protein abundance (concentration: 6mM): 1.28 ± 0.073
  NP40-soluble protein abundance (concentration: 8mM): 1.18 ± 0.054
  NP40-soluble protein abundance (concentration: 10mM): 1.25 ± 0.085
UniProt Q7Z2Z2
  NP40-soluble protein abundance (concentration: 1mM): 1 ± 0.03
  NP40-soluble protein abundance (concentration: 2mM): 0.99 ± 0.021
  NP40-soluble protein abundance (concentration: 4mM): 0.965 ± 0.028
  NP40-soluble protein abundance (concentration: 6mM): 0.953 ± 0.053
  NP40-soluble protein abundance (concentration: 8mM): 0.989 ± 0.032
  NP40-soluble protein abundance (concentration: 10mM): 0.972 ± 0.022

More records follow:

Target	NP40-soluble protein abundance (concentration: 1mM)	NP40-soluble protein abundance (concentration: 2mM)	NP40-soluble protein abundance (concentration: 4mM)	NP40-soluble protein abundance (concentration: 6mM)	NP40-soluble protein abundance (concentration: 8mM)	NP40-soluble protein abundance (concentration: 10mM)
UniProt Q8IUQ4 and related entries	1.03 ± 0.062	0.995 ± 0.048	1.029 ± 0.0098	0.915 ± 0.1	1.04 ± 0.079	0.975 ± 0.08
UniProt Q6ZSZ5	1.06 ± 0.08	1.03 ± 0.044	1.08 ± 0.073	1.12 ± 0.092	1.04 ± 0.023	1.11 ± 0.065
SND1 (UniProt Q7KZF4)	1.01 ± 0.05	1.03 ± 0.043	1.08 ± 0.047	1.16 ± 0.085	1.23 ± 0.055	1.26 ± 0.057
UniProt Q71SY5 and related entries	0.938 ± 0.054	0.929 ± 0.056	0.943 ± 0.087	0.939 ± 0.087	0.94 ± 0.13	0.957 ± 0.079
RSRC2 (UniProt Q7L4I2)	1.19 ± 0.051	1.19 ± 0.07	1.22 ± 0.078	1.29 ± 0.074	1.21 ± 0.1	1.23 ± 0.094
TRAPPC5 (UniProt Q8IUR0)	0.883 ± 0.076	0.899 ± 0.082	0.892 ± 0.059	0.784 ± 0.07	0.878 ± 0.046	0.885 ± 0.017
UniProt Q7Z2Z1 and related entries	1.07 ± 0.055	1.198 ± 0.0025	1.2 ± 0.1	1.25 ± 0.26	1.12 ± 0.064	1.19 ± 0.094
UniProt Q7Z7G8 and related entries	0.841 ± 0.083	0.778 ± 0.055	0.804 ± 0.01	0.817 ± 0.0084	0.795 ± 0.15	0.823 ± 0.07
UniProt Q7L592	0.964 ± 0.031	0.985 ± 0.02	0.963 ± 0.023	0.948 ± 0.036	0.945 ± 0.054	0.9682 ± 0.007
ZBTB33 (UniProt Q86T24)	1 ± 0.058	0.995 ± 0.011	0.998 ± 0.02	1.01 ± 0.047	0.974 ± 0.017	1.02 ± 0.018
UniProt Q7Z624	1 ± 0.021	0.983 ± 0.045	0.94 ± 0.0078	0.992 ± 0.014	0.977 ± 0.051	1.01 ± 0.12
CCDC25 (UniProt Q86WR0)	0.967 ± 0.039	0.953 ± 0.018	0.9219 ± 0.0087	0.979 ± 0.033	0.935 ± 0.014	0.939 ± 0.025
UniProt Q6UXH1 and related entries	1 ± 0.075	0.998 ± 0.029	0.988 ± 0.013	1.03 ± 0.018	0.94 ± 0.025	0.901 ± 0.053
UniProt Q86SK9 and related entries	0.994 ± 0.058	1.12 ± 0.28	1.06 ± 0.028	0.892 ± 0.067	0.93 ± 0.034	0.977 ± 0.048
UniProt Q6PII3	0.941 ± 0.057	0.962 ± 0.02	0.972 ± 0.039	0.942 ± 0.052	1.01 ± 0.072	1.01 ± 0.076
APOOL (UniProt Q6UXV4)	0.959 ± 0.11	0.984 ± 0.063	1.01 ± 0.073	1.06 ± 0.046	1.04 ± 0.091	1.05 ± 0.063
FASTKD5 (UniProt Q7L8L6)	1.04 ± 0.19	1.08 ± 0.24	0.984 ± 0.2	0.984 ± 0.059	1.03 ± 0.19	1.02 ± 0.13
METAP1D (UniProt Q6UB28)	1.66 ± 0.89	1.05 ± 0.094	0.96 ± 0.17	1.02 ± 0.072	1 ± 0.041	0.964 ± 0.097
UniProt Q71RG4 and related entries	0.952 ± 0.065	0.968 ± 0.057	0.975 ± 0.018	0.951 ± 0.046	0.897 ± 0.027	0.883 ± 0.064
UniProt Q7Z7C8 and related entries	1.04 ± 0.077	1.05 ± 0.048	1.08 ± 0.077	1.13 ± 0.11	1.06 ± 0.094	1.04 ± 0.043
